Measurements taken from the supplement of paper PMC10849652.
The list shows a part of the results.

Protein sequences, listed by entry. Tags and fused reporters are not part of them. Lines headed by an entry give the natural chain unless they say otherwise; changes in a name come on top.
UniProt Q5HYJ3: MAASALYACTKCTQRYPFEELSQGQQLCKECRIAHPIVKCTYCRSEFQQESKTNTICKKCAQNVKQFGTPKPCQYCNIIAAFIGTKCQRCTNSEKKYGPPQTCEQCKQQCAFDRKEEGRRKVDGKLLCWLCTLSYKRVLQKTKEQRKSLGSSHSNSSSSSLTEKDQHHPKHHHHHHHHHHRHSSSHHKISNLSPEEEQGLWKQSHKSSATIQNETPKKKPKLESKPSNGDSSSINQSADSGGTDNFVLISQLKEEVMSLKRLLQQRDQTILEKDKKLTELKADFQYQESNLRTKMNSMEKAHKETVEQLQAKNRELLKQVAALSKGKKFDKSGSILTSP
UniProt Q9UK73, whole entry, looked up: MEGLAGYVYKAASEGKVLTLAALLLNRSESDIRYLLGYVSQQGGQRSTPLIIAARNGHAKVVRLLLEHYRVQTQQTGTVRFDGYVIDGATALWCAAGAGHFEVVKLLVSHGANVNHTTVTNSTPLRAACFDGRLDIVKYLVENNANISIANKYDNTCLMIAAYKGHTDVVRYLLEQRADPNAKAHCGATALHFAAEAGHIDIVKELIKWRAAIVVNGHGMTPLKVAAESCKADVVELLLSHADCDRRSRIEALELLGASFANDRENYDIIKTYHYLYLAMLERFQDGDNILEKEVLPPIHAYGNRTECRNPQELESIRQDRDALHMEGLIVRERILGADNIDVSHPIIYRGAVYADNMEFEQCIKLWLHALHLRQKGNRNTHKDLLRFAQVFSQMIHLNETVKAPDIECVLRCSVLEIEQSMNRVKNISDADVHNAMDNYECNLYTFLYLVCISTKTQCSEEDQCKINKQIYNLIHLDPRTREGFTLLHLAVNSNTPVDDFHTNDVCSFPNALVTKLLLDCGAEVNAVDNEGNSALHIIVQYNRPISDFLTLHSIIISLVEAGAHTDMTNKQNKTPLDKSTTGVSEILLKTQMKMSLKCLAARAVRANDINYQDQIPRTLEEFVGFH
UniProt Q14254: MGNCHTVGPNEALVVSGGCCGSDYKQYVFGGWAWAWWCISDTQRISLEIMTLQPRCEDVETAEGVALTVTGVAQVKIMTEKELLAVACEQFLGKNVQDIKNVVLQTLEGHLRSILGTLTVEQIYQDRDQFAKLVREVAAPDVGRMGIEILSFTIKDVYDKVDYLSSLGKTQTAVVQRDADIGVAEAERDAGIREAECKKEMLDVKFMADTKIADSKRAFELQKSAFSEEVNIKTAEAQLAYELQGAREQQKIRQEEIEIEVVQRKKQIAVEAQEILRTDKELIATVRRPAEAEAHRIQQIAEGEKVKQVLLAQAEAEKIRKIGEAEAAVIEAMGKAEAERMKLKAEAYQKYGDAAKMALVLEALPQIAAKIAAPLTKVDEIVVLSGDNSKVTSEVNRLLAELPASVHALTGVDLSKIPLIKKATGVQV
UniProt Q9NXK8: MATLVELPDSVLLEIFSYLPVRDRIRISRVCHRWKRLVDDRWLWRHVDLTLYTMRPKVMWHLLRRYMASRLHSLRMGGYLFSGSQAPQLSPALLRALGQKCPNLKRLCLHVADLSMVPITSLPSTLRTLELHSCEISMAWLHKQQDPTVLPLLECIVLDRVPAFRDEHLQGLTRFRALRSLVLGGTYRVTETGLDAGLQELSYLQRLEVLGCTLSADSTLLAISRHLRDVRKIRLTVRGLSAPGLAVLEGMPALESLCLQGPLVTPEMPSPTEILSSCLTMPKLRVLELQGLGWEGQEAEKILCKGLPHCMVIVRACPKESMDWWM
UniProt Q9UKT5: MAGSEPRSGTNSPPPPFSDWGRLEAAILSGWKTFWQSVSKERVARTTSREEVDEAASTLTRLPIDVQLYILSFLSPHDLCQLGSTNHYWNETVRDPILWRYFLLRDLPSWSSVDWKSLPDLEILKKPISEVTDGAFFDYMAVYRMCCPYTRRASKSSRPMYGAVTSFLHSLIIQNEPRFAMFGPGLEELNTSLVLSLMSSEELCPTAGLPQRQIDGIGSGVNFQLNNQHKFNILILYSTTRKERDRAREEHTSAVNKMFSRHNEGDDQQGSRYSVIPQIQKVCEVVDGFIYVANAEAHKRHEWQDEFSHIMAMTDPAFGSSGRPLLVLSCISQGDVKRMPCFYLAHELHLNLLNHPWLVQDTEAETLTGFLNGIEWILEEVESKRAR
UniProt A6NHQ2: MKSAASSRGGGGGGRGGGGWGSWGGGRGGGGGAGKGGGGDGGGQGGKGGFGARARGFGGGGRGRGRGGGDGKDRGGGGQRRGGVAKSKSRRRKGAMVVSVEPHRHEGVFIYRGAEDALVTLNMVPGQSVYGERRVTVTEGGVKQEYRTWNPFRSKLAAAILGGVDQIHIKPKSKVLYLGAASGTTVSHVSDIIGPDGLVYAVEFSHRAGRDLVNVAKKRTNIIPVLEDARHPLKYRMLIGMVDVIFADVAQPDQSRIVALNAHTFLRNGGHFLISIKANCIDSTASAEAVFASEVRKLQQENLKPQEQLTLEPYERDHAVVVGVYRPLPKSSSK
UniProt Q9UK99: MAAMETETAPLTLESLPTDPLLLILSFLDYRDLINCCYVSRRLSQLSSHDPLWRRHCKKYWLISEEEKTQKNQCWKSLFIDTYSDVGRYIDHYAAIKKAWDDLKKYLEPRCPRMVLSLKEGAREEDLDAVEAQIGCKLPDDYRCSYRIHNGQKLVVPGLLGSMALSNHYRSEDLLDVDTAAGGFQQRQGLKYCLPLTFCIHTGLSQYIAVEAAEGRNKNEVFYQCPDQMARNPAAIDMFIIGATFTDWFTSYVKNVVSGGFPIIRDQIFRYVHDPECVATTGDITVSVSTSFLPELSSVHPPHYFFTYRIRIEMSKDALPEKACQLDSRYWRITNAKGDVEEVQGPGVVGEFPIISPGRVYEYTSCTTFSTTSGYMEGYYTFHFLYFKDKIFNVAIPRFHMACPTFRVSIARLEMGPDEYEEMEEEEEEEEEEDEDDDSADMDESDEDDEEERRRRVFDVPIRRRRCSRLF
UniProt O75369, whole entry, looked up: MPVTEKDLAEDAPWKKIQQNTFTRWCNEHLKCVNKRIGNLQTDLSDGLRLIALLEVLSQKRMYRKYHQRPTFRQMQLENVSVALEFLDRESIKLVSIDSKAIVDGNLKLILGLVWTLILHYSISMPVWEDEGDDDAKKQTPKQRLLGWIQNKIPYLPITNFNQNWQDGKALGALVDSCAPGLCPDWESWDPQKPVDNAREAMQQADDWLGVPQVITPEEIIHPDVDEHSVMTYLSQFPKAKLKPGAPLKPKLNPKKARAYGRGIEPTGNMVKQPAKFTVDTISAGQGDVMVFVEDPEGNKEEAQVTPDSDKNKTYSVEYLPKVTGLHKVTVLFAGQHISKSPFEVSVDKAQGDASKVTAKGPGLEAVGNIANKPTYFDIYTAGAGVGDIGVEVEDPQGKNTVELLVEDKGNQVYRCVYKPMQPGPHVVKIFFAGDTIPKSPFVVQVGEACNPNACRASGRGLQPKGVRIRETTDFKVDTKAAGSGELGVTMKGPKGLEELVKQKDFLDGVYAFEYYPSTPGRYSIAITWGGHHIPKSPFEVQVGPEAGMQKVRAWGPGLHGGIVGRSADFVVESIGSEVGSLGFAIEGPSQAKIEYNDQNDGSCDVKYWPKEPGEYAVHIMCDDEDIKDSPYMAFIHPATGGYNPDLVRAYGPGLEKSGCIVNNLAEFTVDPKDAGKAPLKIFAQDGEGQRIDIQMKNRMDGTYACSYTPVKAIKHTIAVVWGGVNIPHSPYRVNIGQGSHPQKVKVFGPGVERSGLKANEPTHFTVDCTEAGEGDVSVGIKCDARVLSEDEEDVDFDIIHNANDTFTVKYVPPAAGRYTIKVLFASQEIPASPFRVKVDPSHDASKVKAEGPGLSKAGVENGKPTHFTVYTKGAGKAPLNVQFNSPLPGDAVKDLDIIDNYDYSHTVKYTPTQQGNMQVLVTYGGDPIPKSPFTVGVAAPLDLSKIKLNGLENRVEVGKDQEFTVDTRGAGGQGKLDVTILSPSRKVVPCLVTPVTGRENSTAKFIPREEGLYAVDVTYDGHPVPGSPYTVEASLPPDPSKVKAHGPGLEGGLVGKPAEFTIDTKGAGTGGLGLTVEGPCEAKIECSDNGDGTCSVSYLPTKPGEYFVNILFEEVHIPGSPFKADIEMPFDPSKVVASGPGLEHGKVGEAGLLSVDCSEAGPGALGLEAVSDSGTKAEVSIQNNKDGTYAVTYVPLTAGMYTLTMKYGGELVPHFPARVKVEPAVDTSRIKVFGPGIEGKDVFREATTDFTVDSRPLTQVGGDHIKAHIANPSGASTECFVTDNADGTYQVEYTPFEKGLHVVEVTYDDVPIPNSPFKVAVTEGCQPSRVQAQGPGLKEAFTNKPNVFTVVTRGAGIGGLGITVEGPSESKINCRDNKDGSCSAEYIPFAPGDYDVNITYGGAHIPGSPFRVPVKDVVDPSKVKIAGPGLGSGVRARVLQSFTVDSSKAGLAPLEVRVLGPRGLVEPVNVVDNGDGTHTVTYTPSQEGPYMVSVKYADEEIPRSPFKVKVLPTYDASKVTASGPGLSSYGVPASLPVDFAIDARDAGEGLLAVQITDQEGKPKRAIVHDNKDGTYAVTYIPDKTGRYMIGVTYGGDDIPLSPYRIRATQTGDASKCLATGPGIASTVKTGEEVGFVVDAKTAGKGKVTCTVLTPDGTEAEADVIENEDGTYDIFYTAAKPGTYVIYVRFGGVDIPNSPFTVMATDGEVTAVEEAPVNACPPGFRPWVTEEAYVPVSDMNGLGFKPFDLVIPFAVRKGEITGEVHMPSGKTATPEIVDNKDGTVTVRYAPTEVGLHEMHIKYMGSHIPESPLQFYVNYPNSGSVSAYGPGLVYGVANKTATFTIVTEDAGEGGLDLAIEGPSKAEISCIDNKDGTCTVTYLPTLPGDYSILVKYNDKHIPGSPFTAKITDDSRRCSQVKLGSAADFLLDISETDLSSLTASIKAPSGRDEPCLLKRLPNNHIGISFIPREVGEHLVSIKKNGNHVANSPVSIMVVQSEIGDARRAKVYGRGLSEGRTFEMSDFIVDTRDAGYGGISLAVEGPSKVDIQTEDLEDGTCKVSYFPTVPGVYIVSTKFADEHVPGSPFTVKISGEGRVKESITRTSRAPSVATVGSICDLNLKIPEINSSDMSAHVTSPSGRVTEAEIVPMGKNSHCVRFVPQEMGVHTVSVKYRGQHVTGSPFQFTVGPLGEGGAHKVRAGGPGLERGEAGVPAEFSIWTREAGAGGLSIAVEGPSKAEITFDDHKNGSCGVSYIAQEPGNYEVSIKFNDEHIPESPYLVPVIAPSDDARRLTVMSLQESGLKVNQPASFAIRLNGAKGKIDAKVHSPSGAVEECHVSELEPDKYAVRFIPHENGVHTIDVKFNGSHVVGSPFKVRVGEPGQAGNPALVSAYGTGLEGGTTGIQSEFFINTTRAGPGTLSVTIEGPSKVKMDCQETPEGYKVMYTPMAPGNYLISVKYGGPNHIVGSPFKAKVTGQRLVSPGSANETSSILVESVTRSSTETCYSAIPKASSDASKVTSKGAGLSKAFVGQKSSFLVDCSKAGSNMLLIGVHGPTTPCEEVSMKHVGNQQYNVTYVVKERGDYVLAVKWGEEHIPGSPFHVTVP
UniProt P09038, whole entry, looked up: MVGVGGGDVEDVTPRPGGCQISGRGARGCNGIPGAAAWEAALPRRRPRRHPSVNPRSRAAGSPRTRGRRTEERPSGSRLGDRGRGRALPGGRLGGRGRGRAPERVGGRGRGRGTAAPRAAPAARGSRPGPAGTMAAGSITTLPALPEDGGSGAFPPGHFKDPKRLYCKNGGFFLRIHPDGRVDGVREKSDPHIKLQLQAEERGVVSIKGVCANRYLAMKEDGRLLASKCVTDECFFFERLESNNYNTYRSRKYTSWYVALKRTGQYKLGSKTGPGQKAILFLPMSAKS
UniProt P98173: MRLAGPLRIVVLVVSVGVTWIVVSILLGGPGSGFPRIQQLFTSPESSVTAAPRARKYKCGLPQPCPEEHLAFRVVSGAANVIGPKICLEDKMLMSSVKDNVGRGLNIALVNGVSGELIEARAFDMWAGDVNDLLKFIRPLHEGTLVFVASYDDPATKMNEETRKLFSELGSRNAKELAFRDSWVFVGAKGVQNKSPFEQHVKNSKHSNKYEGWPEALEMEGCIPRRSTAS
UniProt Q9NUQ9: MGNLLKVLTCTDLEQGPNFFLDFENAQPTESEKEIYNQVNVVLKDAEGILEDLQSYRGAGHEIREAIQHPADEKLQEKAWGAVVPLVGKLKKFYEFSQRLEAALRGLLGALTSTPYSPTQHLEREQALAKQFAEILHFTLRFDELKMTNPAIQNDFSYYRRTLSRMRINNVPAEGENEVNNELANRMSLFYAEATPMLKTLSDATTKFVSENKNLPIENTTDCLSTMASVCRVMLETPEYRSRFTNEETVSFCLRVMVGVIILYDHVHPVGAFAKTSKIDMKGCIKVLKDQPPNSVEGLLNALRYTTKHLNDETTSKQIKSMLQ

What was measured:
Test in all cases: log2 fold change, soluble protein after heating vs DMSO (PISA); higher = thermal stabilisation; K562 cells, 10 uM, 30 min; active = over 0.2 and 3.5 SD of the protein, either way, in both replicates (recomputed)
[1] = compound: COC1=CC=C(C=C1)CN2C=CC3=C2C=C(C=C3)C(=O)NO
Method in brief: (§1)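 Soluble protein was quantified by TMTpro 16plex LC-MS/MS after channel sums were equalised. It was obtained as the supernatant after 21,000xg for 90 min from pooled aliquots of K562 cells (2×10^6 cells/mL, 10 μM compound, 30 min) heated for 3 min across 48°C-58°C and extracted in PBS with 0.5% NP-40 at 4°C. Thermal stability values are relative to control samples and come from duplicates. They are given as log2 fold changes.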

[2] = compound: CON(C)C(=O)N1N=C(c2cc(F)ccc2F)S[C@@]1(CCCN)c1ccccc1 [filanesib]
Method in brief: as §1

[3] = compound: CO[C@H]1C[C@@H]2CC[C@@H](C)[C@@](O)(O2)C(=O)C(=O)N2CCCC[C@H]2C(=O)O[C@H]([C@H](C)C[C@@H]2CC[C@H](n3cnnn3)[C@H](OC)C2)CC(=O)[C@H](C)/C=C(\C)[C@@H](O)[C@@H](OC)C(=O)[C@H](C)C[C@H](C)/C=C/C=C/C=C/1C [zotarolimus]
Method in brief: as §1

[4] = compound: COc1cc(C(=O)O)ccc1NC(=O)[C@@H]1N[C@@H](CC(C)(C)C)[C@](C#N)(c2ccc(Cl)cc2F)[C@H]1c1cccc(Cl)c1F [idasanutlin]
Method in brief: as §1

[5] = compound: COc1cc(Nc2ncc3c(n2)-c2ccc(Cl)cc2C(c2c(F)cccc2OC)=NC3)ccc1C(=O)O [alisertib]
Method in brief: as §1

[6] = compound: COc1cc2nc(-c3cc(F)ccc3O)nc(N[C@@H]3CNC[C@H]3C(C)(C)O)c2cc1OC
Method in brief: as §1

[7] = compound: COc1cc2ncnc(Nc3ccc(F)c(Cl)c3)c2cc1OCCCN1CCOCC1 [gefitinib]
Method in brief: as §1

[8] = compound: COc1cccc2cc(-c3nc([C@H]4CC[C@H](C(=O)O)CC4)n4ncnc(N)c34)[nH]c12
Method in brief: as §1

[9] = compound: CS(=O)(=O)CCNCc1ccc(-c2ccc3ncnc(Nc4ccc(OCc5cccc(F)c5)c(Cl)c4)c3c2)o1 [lapatinib]
Method in brief: as §1

[10] = compound: CS(=O)(=O)N1CCN(Cc2cc3nc(-c4cccc5[nH]ncc45)nc(N4CCOCC4)c3s2)CC1 [pictilisib]
Method in brief: as §1

[11] = compound: CS(=O)(=O)c1ccc(-c2cnc(N)c(C(=O)Nc3ccccc3)n2)cc1
Method in brief: as §1

[12] = compound: C[C@@H](Oc1cc(-c2cnn(C3CCNCC3)c2)cnc1N)c1c(Cl)ccc(F)c1Cl [crizotinib]
Method in brief: as §1

[13] = compound: C[C@@H]1COCCN1C2=NC(=NC(=C2)C3(CC3)S(=O)(=O)C)C4=C5C=CNC5=CC=C4
Method in brief: as §1

[14] = compound: C[C@H](C1=CC=C(C=C1)C(=O)NC2=C3C=CNC3=NC=C2)N
Method in brief: as §1

[15] = compound: C[C@H](Nc1ncnc2nc[nH]c12)c1cc2cccc(Cl)c2c(=O)n1-c1ccccc1 [duvelisib]
Method in brief: as §1

[16] = compound: Cc1cc(Nc2cc(CN3CCOCC3)c3nc(C)c(Cc4ccc(Cl)cc4F)n3n2)n[nH]1 [gandotinib]
Method in brief: as §1

[17] = compound: Cc1cc(Nc2cc(N3CCN(C)CC3)nc(Sc3ccc(NC(=O)C4CC4)cc3)n2)n[nH]1 [tozasertib]
Method in brief: as §1

[18] = compound: Cc1cc(SCc2sc(-c3ccc(C(F)(F)F)cc3)nc2C)ccc1OCC(=O)O
Method in brief: as §1

[19] = compound: Cc1ccc(-n2nc(C(C)(C)C)cc2NC(=O)Nc2ccc(OCCN3CCOCC3)c3ccccc23)cc1 [doramapimod]
Method in brief: as §1

[20] = compound: Cc1ccc(C(=O)N(CCCN)[C@@H](c2nc3cc(Cl)ccc3c(=O)n2Cc2ccccc2)C(C)C)cc1 [ispinesib]
Method in brief: as §1

Row | Target | log2 fold change [1] | log2 fold change [2] | log2 fold change [3] | log2 fold change [4] | log2 fold change [5] | log2 fold change [6] | log2 fold change [7] | log2 fold change [8] | log2 fold change [9] | log2 fold change [10] | log2 fold change [11] | log2 fold change [12] | log2 fold change [13] | log2 fold change [14] | log2 fold change [15] | log2 fold change [16] | log2 fold change [17] | log2 fold change [18] | log2 fold change [19] | log2 fold change [20]
1 | FAM76B (UniProt Q5HYJ3) | inactive: 0.183 | inactive: 0.159 | inactive: -0.014 | inactive: -0.186 | inactive: -0.031 | inactive: 0.027 | inactive: 0.117 | inactive: 0.16 | inactive: 0.066 | inactive: -0.141 | inactive: -0.016 | inactive: -0.076 | inactive: -0.024 | inactive: 0.018 | inactive: -0.073 | inactive: -0.237 | inactive: 0.012 | inactive: 0.039 | inactive: 0.123 | inactive: 0.17
2 | FEM1B (UniProt Q9UK73) | inactive: -0.096 | inactive: 0.033 | inactive: -0.017 | inactive: -0.028 | inactive: -0.06 | inactive: -0.037 | inactive: -0.013 | inactive: 0.133 | inactive: 0.001 | inactive: -0.023 | inactive: -0.009 | inactive: 0.052 | inactive: -0.063 | inactive: 0.001 | inactive: 0.076 | inactive: 0.023 | inactive: -0.047 | inactive: 0.024 | inactive: 0.011 | inactive: 0.076
3 | FAM98A (UniProt Q8NCA5) | inactive: -0.055 | inactive: 0.409 | inactive: 0.002 | inactive: 0.06 | inactive: -0.143 | inactive: 0.039 | inactive: -0.055 | inactive: -0.251 | inactive: 0.072 | inactive: -0.009 | inactive: -0.009 | inactive: -0.12 | inactive: -0.252 | inactive: 0.32 | inactive: -0.128 | inactive: 0.088 | inactive: 0.009 | inactive: 0.068 | inactive: 0.215 | inactive: -0.015
4 | FLOT2 (UniProt Q14254) | inactive: -0.106 | inactive: 0.097 | inactive: -0.017 | inactive: 0.069 | inactive: -0.222 | inactive: -0.024 | inactive: 0.067 | inactive: -0.359 | inactive: 0.033 | inactive: -0.022 | inactive: 0.085 | inactive: 0.207 | inactive: -0.132 | inactive: 0.251 | inactive: -0.064 | inactive: 0.06 | inactive: 0.1 | inactive: 0.117 | inactive: 0.146 | inactive: -0.027
5 | FBXL12 (UniProt Q9NXK8) | inactive: 0.175 | inactive: -0.037 | inactive: 0.041 | inactive: -0.062 | inactive: -0.001 | inactive: -0.004 | inactive: 0.012 | inactive: -0.007 | inactive: -0.046 | inactive: -0.006 | inactive: -0.022 | inactive: 0.105 | inactive: -0.007 | inactive: -0.088 | inactive: 0.013 | inactive: 0.035 | inactive: -0.047 | inactive: 0.017 | inactive: 0.11 | inactive: 0.023
6 | FBXO4 (UniProt Q9UKT5) | inactive: -0.019 | inactive: 0.063 | inactive: -0.007 | inactive: -0.034 | inactive: -0.112 | inactive: -0.032 | inactive: -0.008 | inactive: 0.05 | inactive: 0.03 | inactive: 0.026 | inactive: 0.072 | inactive: -0.126 | inactive: 0.132 | inactive: -0.019 | inactive: -0.071 | inactive: 0.002 | inactive: -0.016 | inactive: 0.045 | inactive: 0.014 | inactive: -0.006
7 | FBLL1 (UniProt A6NHQ2) | inactive: -0.125 | inactive: 0.539 | inactive: 0.088 | inactive: 0.409 | inactive: -0.041 | inactive: -0.046 | inactive: 0.199 | inactive: 0.051 | inactive: 0.124 | inactive: -0.161 | inactive: 0.036 | inactive: 0.038 | inactive: -0.217 | inactive: 0.217 | inactive: -0.046 | inactive: 0.3 | inactive: 0.067 | inactive: -0.011 | inactive: 0.144 | inactive: 0.2
8 | FBXO3 (UniProt Q9UK99) | inactive: 0.011 | inactive: -0.053 | inactive: -0.022 | inactive: 0.032 | inactive: -0.071 | inactive: -0.013 | inactive: 0.011 | inactive: 0.025 | inactive: 0.028 | inactive: -0.023 | inactive: 0.055 | inactive: 0.005 | inactive: -0.095 | inactive: 0.008 |  | inactive: -0.112 |  | inactive: -0.025 | inactive: -0.003 | inactive: 0.082
9 | FNTA (UniProt P49354) | inactive: 0.162 | inactive: 0.069 | inactive: 0.019 | inactive: -0.062 | inactive: -0.074 | inactive: -0.01 | inactive: 0.056 | inactive: 0.044 | inactive: 0.04 | inactive: -0.005 | inactive: 0.073 | inactive: 0.069 | inactive: 0.077 | inactive: -0.005 |  | inactive: 0.057 |  | inactive: -0.014 | inactive: -0.043 | inactive: 0.06
10 | FLNB isoform 8 (UniProt O75369) | inactive: 0.009 | inactive: 0.007 | inactive: 0.036 | inactive: -0.022 | inactive: 0.016 | inactive: 0.045 | inactive: 0.002 | inactive: -0.012 | inactive: -0.023 | inactive: 0.062 | inactive: 0.031 | inactive: -0.025 | inactive: 0.046 | inactive: -0.049 | inactive: 0.006 | inactive: -0.03 | inactive: 0.049 | inactive: 0.039 | inactive: -0.018 | inactive: 0.079
11 | FGF2 (UniProt P09038) | inactive: -0.101 | inactive: -0.005 | inactive: -0.019 | inactive: 0.015 | inactive: 0.022 | inactive: -0.021 | inactive: -0.004 | inactive: 0.051 | inactive: 0 | inactive: -0.046 | inactive: -0.009 | inactive: 0.043 | inactive: 0.091 | inactive: 0.088 | inactive: -0.065 | inactive: 0.016 | inactive: -0.055 | inactive: 0.042 | inactive: 0.027 | inactive: -0.079
12 | FAM3A (UniProt P98173) | inactive: -0.057 | inactive: -0.022 | inactive: 0.005 | inactive: 0.007 | inactive: 0.044 | inactive: -0.021 | inactive: 0.04 | inactive: 0.066 | inactive: 0.067 | inactive: 0.055 | inactive: 0.01 | inactive: -0.071 | inactive: 0.07 | inactive: 0.01 |  | inactive: 0.014 |  | inactive: -0.075 | inactive: 0.009 | inactive: -0.065
13 | FHOD1 (UniProt Q9Y613) | inactive: -0.044 | inactive: 0.084 | inactive: 0.095 | inactive: 0.127 | inactive: -0.161 | inactive: 0.186 | inactive: -0.005 | inactive: -0.253 | inactive: 0.014 | inactive: 0.01 | inactive: 0.033 | inactive: -0.107 | inactive: -0.174 | active: 0.58 |  | inactive: 0.105 |  | inactive: 0.085 | inactive: 0.235 | inactive: -0.193
14 | FAM49B (UniProt Q9NUQ9) | inactive: -0.02 | inactive: -0.071 | inactive: 0.005 | inactive: -0.082 | inactive: -0.046 | inactive: -0.014 | inactive: -0.006 | inactive: 0.059 | inactive: 0.025 | inactive: 0.013 | inactive: 0.019 | inactive: -0.057 | inactive: 0.047 | inactive: -0.051 | inactive: 0.039 | inactive: -0.098 | inactive: 0.006 | inactive: 0.003 | inactive: -0.009 | inactive: 0.011
15 | FBLN1 (UniProt P23142) | inactive: -0.014 | inactive: 0.004 | inactive: -0.138 | inactive: 0.142 | inactive: -0.143 | inactive: -0.105 | inactive: -0.179 | inactive: 0.383 | inactive: -0.031 | inactive: -0.136 | inactive: -0.035 | inactive: 0.07 | inactive: 0.052 | inactive: 0.129 | inactive: -0.111 | inactive: -0.065 | inactive: -0.092 | inactive: -0.192 | inactive: -0.073 | inactive: -0.096

Laid out differently: results already given.
Row,Target,log2 fold change [1],log2 fold change [2],log2 fold change [3],log2 fold change [4],log2 fold change [5],log2 fold change [6],log2 fold change [7],log2 fold change [8],log2 fold change [9],log2 fold change [10],log2 fold change [11],log2 fold change [12],log2 fold change [13],log2 fold change [14],log2 fold change [15],log2 fold change [16],log2 fold change [17],log2 fold change [18],log2 fold change [19],log2 fold change [20]
4,FLOT2 (UniProt Q14254),inactive: -0.106,inactive: 0.097,inactive: -0.017,inactive: 0.069,inactive: -0.222,inactive: -0.024,inactive: 0.067,inactive: -0.359,inactive: 0.033,inactive: -0.022,inactive: 0.085,inactive: 0.207,inactive: -0.132,inactive: 0.251,inactive: -0.064,inactive: 0.06,inactive: 0.1,inactive: 0.117,inactive: 0.146,inactive: -0.027
5,FBXL12 (UniProt Q9NXK8),inactive: 0.175,inactive: -0.037,inactive: 0.041,inactive: -0.062,inactive: -0.001,inactive: -0.004,inactive: 0.012,inactive: -0.007,inactive: -0.046,inactive: -0.006,inactive: -0.022,inactive: 0.105,inactive: -0.007,inactive: -0.088,inactive: 0.013,inactive: 0.035,inactive: -0.047,inactive: 0.017,inactive: 0.11,inactive: 0.023
